From article PMC5327418
Results are given in words; binding and its absence hold for the method and conditions named. Binding seen in cells or lysates may run through a third protein. Here binding means that the protein was enriched with, or labelled near, the bait; the list need not be complete. For some assays here: A no says only that the protein was not detected with the bait. For some assays here: Where a sequence is shown, tags or fusion partners need not be part of it. Values belong to the binder of their own block, whether it stands above or below them.

How the values were obtained:
[1] = target: T1, Med17-HA (S. cerevisiae (endogenous in S288c)), P32569; assay: affinity purification with mass spectrometry; CoIP of Med17-HA on anti-HA magnetic beads from cryoground yeast lysate, 2 h at 4 °C; 20 mM HEPES pH 7.5, 300 mM KOAc, 10% glycerol, 0.01% NP-40, 6 mM MnSO4, 1 mM DTT, Cyanase nuclease; parallel control CoIP from 15N-labelled wild type cells, mixing after purification (MAP); GeLC-MS/MS, three biological replicates; details: remark: other sources report otherwise
T1 chain: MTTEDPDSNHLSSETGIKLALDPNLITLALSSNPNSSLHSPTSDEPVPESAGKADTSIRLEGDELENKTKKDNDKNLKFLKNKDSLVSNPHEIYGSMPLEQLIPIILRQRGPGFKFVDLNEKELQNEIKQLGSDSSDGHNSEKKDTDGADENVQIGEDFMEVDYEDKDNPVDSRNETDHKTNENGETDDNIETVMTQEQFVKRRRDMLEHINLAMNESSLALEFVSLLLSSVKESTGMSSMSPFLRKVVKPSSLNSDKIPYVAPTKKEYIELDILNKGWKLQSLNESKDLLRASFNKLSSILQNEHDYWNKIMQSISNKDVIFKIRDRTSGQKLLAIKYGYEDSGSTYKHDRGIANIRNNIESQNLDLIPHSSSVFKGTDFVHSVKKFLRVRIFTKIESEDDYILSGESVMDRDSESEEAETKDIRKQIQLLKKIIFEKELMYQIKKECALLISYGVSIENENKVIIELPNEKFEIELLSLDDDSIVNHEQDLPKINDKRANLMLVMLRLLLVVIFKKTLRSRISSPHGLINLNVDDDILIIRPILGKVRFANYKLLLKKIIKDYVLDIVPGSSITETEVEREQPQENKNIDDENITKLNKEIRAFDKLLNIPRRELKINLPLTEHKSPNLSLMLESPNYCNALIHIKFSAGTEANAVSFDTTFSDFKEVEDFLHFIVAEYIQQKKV

[2] = target: Med17-HA (S. cerevisiae (endogenous in S288c)) (UniProt P32569); assay: as above

B2: Srb8, P25648 1-1427 (protein)
chain: MNNGSGRYLLTPPDDLHPYVPSSKPQEQVYPDFKPWEHTAAEDQILANFVAKGFYHTPMVNFESISARSSVHESLVTQSNILSQQFDKIIKIREDHINKIPSNSTTTLHGPGFQLPNRITLTDHRKETWLHELSSSHTSLVKIGKFIPHGLKRRQVIEQCYLKFIPLKRAIWLIKCCYFIEWKSNHKKKRSNAAGADDAISMHLLKDWTDTFVYILEKLIFDMTNHYNDSQQLRTWKRQISYFLKLLGNCYSLRLINKEIFHHWLVEFINKMENFEFLPLSLHILMIFWNDICQIDTNAPVAATITSSQKEPFFLVTKITDMLLHKYYIVSSSKSMINDENYIINDIKKNNKIKLNILKILSSLILKIFQEQSLEVFIFPTSNWEIYKPLLFEIVSNADTNQNSDMKKKLELISYRNESLKNNSSIRNVIMSASNANDFQLTIVTCKQFPKLSCIQLNCIDTQFTKLLDDNPTEFDWPTYVDQNPLTMHKIIQLILWSIHPSRQFDHYESNQLVAKLLLLRINSTDEDLHEFQIEDAIWSLVFQLAKNFSAQKRVVSYMMPSLYRLLNILITYGIIKVPTYIRKLISSGLLYLQDSNDKFVHVQLLINLKISPLMKSQYNMVLRNVMEYDVKFYEIFNFDQLVEITEQIKMRILSNDITNLQLSKTPLSIKIMVAEWYLSHLCSGILSSVNRTVLLKIFKIFCIDLEVFHHFFKWIEFIVYHQLLSDIESLEALMDILLCYQKLFSQFINDHILFTKTFIFIYKKVLKEKDVPAYNVTSFMPFWKFFMKNFPFVLKVDNDLRIELQSVYNDEKLKTEKLKNDKSEVLKVYSMINNSNQAVGQTWNFPEVFQVNIRFLLHNSEIIDTNTSKQFQKARNNVMLLIATNLKEYNKFMSIFLKRKDFTNKNLIQLISLKLLTFEVTQNVLGLEYIIRLLPINLENNDGSYGLFLKYHKEQFIKSNFEKILLTCYELEKKYHGNECEINYYEILLKILITYGSSPKLLATSTKIIMLLLNDSVENSSNILEDILYYSTCPSETDLNDIPLGSGQPDNDTVVTNDDKSDDDDHTVDEIDHVEYYVMMDFANLWVFQAFTCFCIKKIMENNEPAMAMEDLKNFIFQIIEITNSNDLCSQIFDQLKDMQTIEMITQIVEKDFCTSCLQNNNQKIDDNYIVVVIEIITSLSMRFQRETSGMIVISMENYHLLIKIIRQLSELNEGNLSKREIQIDAVLKIFSFHQDSIFQRIIADLSADKPTSPFIDSICKLFDKISFNLRLKLFLYEILSSLKSFAIYSSTIDAPAFHTSGKVELPKKLLNLPPFQVSSFVKETKLHSGDYGEEEDADQEESFSLNLGIGIVEIAHENEQKWLIYDKKDHKYVCTFSMEPYHFISNYNTKYTDDMATGSNDTTAFNDSCVNLSLFDARFERKNPH
- binding [1]: binds

B4: Rpac1 (protein, UniProt P07703 1-335)
chain: MSNIVGIEYNRVTNTTSTDFPGFSKDAENEWNVEKFKKDFEVNISSLDAREANFDLINIDTSIANAFRRIMISEVPSVAAEYVYFFNNTSVIQDEVLAHRIGLVPLKVDPDMLTWVDSNLPDDEKFTDENTIVLSLNVKCTRNPDAPKGSTDPKELYNNAHVYARDLKFEPQGRQSTTFADCPVVPADPDILLAKLRPGQEISLKAHCILGIGGDHAKFSPVSTASYRLLPQINILQPIKGESARRFQKCFPPGVIGIDEGSDEAYVKDARKDTVSREVLRYEEFADKVKLGRVRNHFIFNVESAGAMTPEEIFFKSVRILKNKAEYLKNCPITQ
- binding [2]: binds

B6: Cdc14 (protein, UniProt Q00684 1-551)
chain: MRRSVYLDNTIEFLRGRVYLGAYDYTPEDTDELVFFTVEDAIFYNSFHLDFGPMNIGHLYRFAVIFHEILNDPENANKAVVFYSSASTRQRANAACMLCCYMILVQAWTPHQVLQPLAQVDPPFMPFRDAGYSNADFEITIQDVVYGVWRAKEKGLIDLHSFNLESYEKYEHVEFGDFNVLTPDFIAFASPQEDHPKGYLATKSSHLNQPFKSVLNFFANNNVQLVVRLNSHLYNKKHFEDIGIQHLDLIFEDGTCPDLSIVKNFVGAAETIIKRGGKIAVHCKAGLGRTGCLIGAHLIYTYGFTANECIGFLRFIRPGMVVGPQQHWLYLHQNDFREWKYTTRISLKPSEAIGGLYPLISLEEYRLQKKKLKDDKRVAQNNIEGELRDLTMTPPSNGHGALSARNSSQPSTANNGSNSFKSSAVPQTSPGQPRKGQNGSNTIEDINNNRNPTSHANRKVVIESNNSDDESMQDTNGTSNHYPKVSRKKNDISSASSSRMEDNEPSATNINNAADDTILRQLLPKNRRVTSGRRTTSAAGGIRKISGSIKK
- binding [2]: binds

B7: Hmo1 (protein, UniProt Q03973 1-246)
chain: MTTDPSVKLKSAKDSLVSSLFELSKAANQTASSIVDFYNAIGDDEEEKIEAFTTLTESLQTLTSGVNHLHGISSELVNPIDDDKDAIIAAPVKAVRRKIERDPNAPKKPLTVFFAYSAYVRQELREDRQKAGLPPLSSTEITQEISKKWKELSDNEKEKWKQAYNVELENYQREKSKYLEAKKNGTLPPASLENGPTHAPVPIPFSLQHAAEPPVEKRPHDDDGSSEKKKKKKKKDKKKDKSNSSI
- binding [2]: binds

B8: Rrn3 (protein, UniProt P36070 1-627)
chain: MMAFENTSKRPPQDFVAPIDQKKRKVQFSDSTGLVTLQPEEIKDEVFSAAMYSRFVKSALDDLDKNDSTQIGIIANQVALPSKNPERINDKNLNILLDILSSNINRIESSRGTFLIQSIINFEKWWELPPHTLSKYIYFIKILCSSIPKWWQDVSMILVSCFILPIKQTVCHHDMLKYFLRMIPSSMGFIDTYLAKFFPNKNDTRRKLVNYTSNLLKLRGYCSELGFQIWSLLIEKIISIDVELQNELDELDDDVDDDDLEEVDLEDDDDLDDDSGDDDDENCGNSNEELRSGAADGSQSDSEDMDIIEGMDGTEEYNVELTQGIKELSTKLDSILTLVSTHVEEQVTPESLESGEGVGVFNTLTTLFKTHVLPTYYTRSIQYIMFHVSQQQLELMDSFLVTLIDISFAVNEAAEKKIKSLQYLGSYIARAKKLSRTQIIFVASYLTSWLNRYVIEREEEVDQRGGMERFKHFYAAFQALCYIFCFRHNIFRDTDGNWECELDKFFQRMVISKFNPLKFCNENVMLMFARIAQQESVAYCFSIIENNNNERLRGIIGKADSDKKENSAQANTTSSSWSLATRQQFIDLQSYFPYDPLFLKNYKILMKEYYIEWSEASGEYESDGSDD
- binding [2]: no binding

Second part, the binder after the results:

- binding [1]: binds
B1: Swp82, P43554 1-623 (protein)
chain: MLGEDEGNTVLEKGNNPSVKQGEVGAVFIVPKILIREHERVILKQILQILDQDELVQPPLDKFPYKKLELPKYIDELKTRDATNTSYKMIQLDAYGEKKVGSNGELFGGRHYLFNTFTFTAHMGVLLVLLQDVIKVLYQSNATHDEDEFIVQHDQILVMETSEEQTKFLAKNGVIPEESKGSFKYITARSAFVEFGASVIAGGQRIVDDYWESLAKKQNLSSHQRVFKLSTNLISKISLLRPSFQNNRISNANEISANTNNTCTISTSKFESQYPIVTEQPSAEIREAYIENFAKGEHISAIVPGQSISGTLELSAQFRVPRYHSKNSFQQALQMKAMDIPIGRHEELLAQYESQAPDGSASISLPNHIPSVNPSNKPIKRMLSSILDINVSSSKNKKSEENEMIKPMNKGQHKNNTSLNINGWKFESLPLKSAENSGKQQYYRGLPLYEKNTLLERLKQLTPNEIKELEHLHDAVFVNTGLQNVRKVRTKKWKKYWQYKAGIPIGLKRSQLDEFKNKYLKDVLAQTSVTTNFNEITNTDETITTKRVPNPNFLGNCNIKDFKPPYIYSHVNKVPQNVAGDKTAVKLDTEVKNTNANPVVATDPVAAKPDNLANFSNEVAMNN

- binding [2]: binds
B3: Rpa49 (protein, UniProt Q01080 1-415)
chain: MSVKRSVSEIEIESVQDQPSVAVGSFFKGFRAPSDTTFDLYKKKKSEKDEFVLHGENERLEYEGYTDSSSQASNQYVVGLFNPEKKSIQLYKAPVLVSKVVSKSSKNLRGPKIKSKSDTRPSALRNALGEAFGTKKAKKAIADLERNRIDSDKLTDSAIDIVDSVRTASKDLPTRAQLDEITSNDRPTPLANIDATDVEQIYPIESIIPKKELQFIRVSSILKEADKEKKLELFPYQNNSKYVAKKLDSLTQPSQMTKLQLLYYLSLLLGVYENRRVNNKTKLLERLNSPPEILVDGILSRFTVIKPGQFGRSKDRSYFIDPQNEDKILCYILAIIMHLDNFIVEITPLAHELNLKPSKVVSLFRVLGAIVKGATVAQAEAFGIPKSTAASYKIATMKVPFKLPEMTRRGRGPRR

- binding [2]: binds
B5: Rpac2 (protein, UniProt P28000 1-142)
chain: MTEDIEQKKTATEVTPQEPKHIQEEEEQDVDMTGDEEQEEEPDREKIKLLTQATSEDGTSASFQIVEEDHTLGNALRYVIMKNPDVEFCGYSIPHPSENLLNIRIQTYGETTAVDALQKGLKDLMDLCDVVESKFTEKIKSM
